Results reported in article PMC2764382.
Results are given in words; binding and its absence hold for the method and conditions named. In cells and extracts the contact can be indirect. Some results given as binding are weak or reduced against the parent protein; the word gives no strength. For part of these data: Tags and fused reporters may be left off the sequences shown.

Sequences of proteins named here, by UniProt entry; tags and fusion partners are left off. A change or cut given only in a name is not applied to a line headed by its entry. A line that says so, or that is headed by a name, gives the form on record, which may keep a tag or linker. Residues count along the entry.
UniProt O08562, residues 968-1157: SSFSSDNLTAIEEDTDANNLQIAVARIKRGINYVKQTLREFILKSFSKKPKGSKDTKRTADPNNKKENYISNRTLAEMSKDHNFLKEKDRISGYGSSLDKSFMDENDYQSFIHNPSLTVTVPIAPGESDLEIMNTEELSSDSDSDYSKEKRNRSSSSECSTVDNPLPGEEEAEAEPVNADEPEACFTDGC
UniProt Q62968: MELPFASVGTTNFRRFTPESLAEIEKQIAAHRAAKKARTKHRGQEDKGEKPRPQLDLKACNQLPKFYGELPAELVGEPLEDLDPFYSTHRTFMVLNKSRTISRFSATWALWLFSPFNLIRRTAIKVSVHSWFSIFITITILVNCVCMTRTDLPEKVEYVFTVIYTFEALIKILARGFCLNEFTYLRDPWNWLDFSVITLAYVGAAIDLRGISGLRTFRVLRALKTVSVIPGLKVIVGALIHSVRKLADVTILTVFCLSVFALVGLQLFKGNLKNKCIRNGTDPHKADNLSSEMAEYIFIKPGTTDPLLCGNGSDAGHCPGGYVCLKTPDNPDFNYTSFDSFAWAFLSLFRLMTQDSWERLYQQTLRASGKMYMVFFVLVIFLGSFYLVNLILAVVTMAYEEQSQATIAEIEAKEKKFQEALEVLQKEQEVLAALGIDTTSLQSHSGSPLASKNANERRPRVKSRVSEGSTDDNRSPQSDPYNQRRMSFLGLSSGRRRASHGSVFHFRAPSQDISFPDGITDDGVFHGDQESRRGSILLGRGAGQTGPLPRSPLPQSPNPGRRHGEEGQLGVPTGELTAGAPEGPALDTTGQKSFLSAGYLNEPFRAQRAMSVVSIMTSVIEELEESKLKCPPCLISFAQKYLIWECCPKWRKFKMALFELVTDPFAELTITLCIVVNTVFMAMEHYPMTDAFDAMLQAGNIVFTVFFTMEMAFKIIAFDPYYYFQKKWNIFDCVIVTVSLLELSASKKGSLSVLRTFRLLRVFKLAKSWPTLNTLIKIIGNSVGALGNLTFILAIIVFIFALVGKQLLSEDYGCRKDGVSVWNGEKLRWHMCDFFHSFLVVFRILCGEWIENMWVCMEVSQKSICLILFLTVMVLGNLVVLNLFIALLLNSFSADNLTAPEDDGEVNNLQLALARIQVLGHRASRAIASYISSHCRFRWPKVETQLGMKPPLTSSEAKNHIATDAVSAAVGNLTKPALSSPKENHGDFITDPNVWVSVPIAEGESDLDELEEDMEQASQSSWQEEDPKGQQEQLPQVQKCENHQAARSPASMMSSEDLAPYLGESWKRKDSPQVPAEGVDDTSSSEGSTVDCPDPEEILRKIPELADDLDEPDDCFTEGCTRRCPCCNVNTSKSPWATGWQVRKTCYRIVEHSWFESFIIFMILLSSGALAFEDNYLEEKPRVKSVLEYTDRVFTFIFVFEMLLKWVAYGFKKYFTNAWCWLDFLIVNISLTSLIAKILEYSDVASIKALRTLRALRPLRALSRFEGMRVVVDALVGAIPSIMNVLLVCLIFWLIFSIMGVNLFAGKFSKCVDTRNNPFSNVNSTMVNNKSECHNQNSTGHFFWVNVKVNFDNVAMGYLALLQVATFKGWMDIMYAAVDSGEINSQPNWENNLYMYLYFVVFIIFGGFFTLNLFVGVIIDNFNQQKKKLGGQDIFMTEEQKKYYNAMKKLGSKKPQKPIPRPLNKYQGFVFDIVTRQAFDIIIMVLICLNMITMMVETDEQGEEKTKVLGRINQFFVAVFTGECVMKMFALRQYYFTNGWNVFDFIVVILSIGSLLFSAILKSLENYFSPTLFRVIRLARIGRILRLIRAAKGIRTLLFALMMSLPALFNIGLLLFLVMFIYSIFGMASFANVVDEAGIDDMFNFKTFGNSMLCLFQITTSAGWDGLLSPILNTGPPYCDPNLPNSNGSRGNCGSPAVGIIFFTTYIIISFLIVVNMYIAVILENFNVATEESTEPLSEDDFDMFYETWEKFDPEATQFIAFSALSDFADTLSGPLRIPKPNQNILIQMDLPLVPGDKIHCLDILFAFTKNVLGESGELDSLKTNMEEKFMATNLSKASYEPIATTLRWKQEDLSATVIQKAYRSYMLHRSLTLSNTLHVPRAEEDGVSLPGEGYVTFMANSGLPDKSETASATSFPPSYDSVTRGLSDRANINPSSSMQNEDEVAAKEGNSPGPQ
intracellular loop between domains 2 and 3 of rat NaV1.8 (amino acid positions 893 to 1148) fused to GST: residues 893-1148 of Q62968

Experiments:
[1] = target: myc-tagged full length rat Pdzd2 (rat) (UniProt Q9QZR8); experiment: co-IP; immunoprecipitation by anti-myc antibody from myc-Pdzd2 transfected CHO-SNS22 cells
[2] = target: intracellular loop between domains 2 and 3 of rat NaV1.7 (aa 968 to 1157) fused to GST (rat) (UniProt O08562); experiment: pull-down; GST pull-down as described (Poon et al., 2004); GST fusion proteins purified on glutathione sepharose beads as bait, HA-Pdzd2(C) as prey
[3] = target: intracellular loop between domains 2 and 3 of rat NaV1.8 (amino acid positions 893 to 1148) fused to GST (rat) (UniProt Q62968); experiment: as above

binding [1]	Molecule	binding [2]	binding [3]
binds	rat NaV1.8 expressed in CHO-SNS22 cells (from UniProt Q62968 1-1956)		
	haemagglutinin (HA)-tagged rat Pdzd2 C-terminal fragment (201aa), GFP-fused (domain or fragment, UniProt Q9QZR8 2567-2766) GGADVEPKSVMVHRVFSQGVASQEGTVSRGDFLLSVNGTSLAGLAHSEVTKVLHQAELHKHALMIIKKGNDQPGPSFKQEPPSANGKGPFPRRTLPLEPGAGRNGAAHDALCVEVLKTSAGLGLSLDGGKSSVSGEGPLVIKRVYKGGAAERAGTIEAGDEILAINGKPLVGLVHFDAWNIMKSVPEGPVQLVIRKHRDS	binds	binds
